Data published in US9102835B2, “Methods of using dyes in association with nucleic acid staining or detection and associated technology” (Biotium, Inc., priority 2005, dated 2015).

Key:
salmon sperm DNA [1] = experiment: Absorbance and fluorescence of DMAO and AOAO-7 without and with DNA; details: PBS buffer; for Red shift of absorbance upon binding to DNA, relative to free dye: 2 mg/ml salmon sperm DNA
[2] = test system: salmon sperm DNA or a mixture of single-stranded 20mer oligonucleotide; experiment: Fluorescence of AOAO-12 in response to different amount of DNA; details: 0.1 μM dye in PBS
salmon sperm DNA [3] = experiment: Absorbance spectra of TOTO-1 and TOTO-3 without and with DNA; details: PBS buffer, without DNA

Compound	Red shift of absorbance upon binding to DNA, relative to free dye (salmon sperm DNA [1]) [nm]	Spectral shift / intramolecular H-dimer formation of free dye (salmon sperm DNA [3])	further results
CN(C)c1ccc2cc3ccc(N(C)C)cc3[n+](CCCCCC(=O)NCCCCCNC(=O)CCCCC[n+]3c4cc(N(C)C)ccc4cc4ccc(N(C)C)cc43)c2c1 [AOAO-7]	5		New shorter wavelength absorbance peak relative to DMAO (aggregation of the two monomers) (salmon sperm DNA [1]; without DNA): 471 nm
CN(C)c1ccc2cc3ccc(N(C)C)cc3[n+](CCCCCC(=O)NCCOCCNC(=O)CCCCC[n+]3c4cc(N(C)C)ccc4cc4ccc(N(C)C)cc43)c2c1 [AOAO-12]			DNA concentration up to which fluorescence responded linearly [2]: 2.0 µg/mL; Fluorescence bound to double stranded versus single stranded DNA [2]: fluoresces more intensely when bound to double stranded DNA than when bound to single stranded DNA
CN(C)CCC[n+]1c2cc(N(C)C)ccc2cc2ccc(N(C)C)cc21.[I-] [DMAO]	10		
CN1/C(=C/c2cc[n+](CCC[N+](C)(C)CCC[N+](C)(C)CCC[n+]3ccc(/C=C4\Sc5ccccc5N4C)c4ccccc43)c3ccccc23)Sc2ccccc21.[I-].[I-].[I-].[I-] [TOTO-1, reference compound]		has less spectral shift	
C[n+]1c(/C=C2/C=CN(CCCCCC(=O)NCCNC(=O)CCCCCN3C=C/C(=C\c4sc5ccccc5[n+]4C)c4ccccc43)c3ccccc32)sc2ccccc21 [TOTO-3]		forms an intramolecular H-dimer, or a hairpin structure	
